According to article PMC7545832:
Results are given in words; binding and its absence hold for the method and conditions named. Binding seen in cells or lysates may run through a third protein.

By UniProt entry, the sequences of proteins in these tests, tags left out. Where a name states a change or a piece, a line headed by the entry shows the natural chain unless it says otherwise.
UniProt O94782: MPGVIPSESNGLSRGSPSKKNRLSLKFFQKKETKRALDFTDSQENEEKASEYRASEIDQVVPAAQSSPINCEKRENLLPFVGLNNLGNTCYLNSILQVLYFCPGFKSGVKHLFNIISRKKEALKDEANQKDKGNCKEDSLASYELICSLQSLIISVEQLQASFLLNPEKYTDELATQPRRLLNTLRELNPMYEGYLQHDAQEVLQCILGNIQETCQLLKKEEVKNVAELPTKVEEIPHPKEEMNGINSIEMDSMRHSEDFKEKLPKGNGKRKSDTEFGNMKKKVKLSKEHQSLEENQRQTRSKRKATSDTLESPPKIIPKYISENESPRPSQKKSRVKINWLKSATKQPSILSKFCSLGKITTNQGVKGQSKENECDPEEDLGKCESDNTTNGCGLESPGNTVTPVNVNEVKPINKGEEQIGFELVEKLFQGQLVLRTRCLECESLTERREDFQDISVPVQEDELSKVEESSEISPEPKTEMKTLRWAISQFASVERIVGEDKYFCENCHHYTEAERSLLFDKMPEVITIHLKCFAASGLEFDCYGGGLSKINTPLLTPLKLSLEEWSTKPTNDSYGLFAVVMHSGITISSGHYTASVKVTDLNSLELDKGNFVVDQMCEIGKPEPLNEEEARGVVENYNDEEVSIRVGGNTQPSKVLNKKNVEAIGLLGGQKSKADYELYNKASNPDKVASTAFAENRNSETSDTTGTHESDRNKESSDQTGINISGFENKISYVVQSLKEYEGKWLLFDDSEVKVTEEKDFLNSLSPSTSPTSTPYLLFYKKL
UniProt P12644: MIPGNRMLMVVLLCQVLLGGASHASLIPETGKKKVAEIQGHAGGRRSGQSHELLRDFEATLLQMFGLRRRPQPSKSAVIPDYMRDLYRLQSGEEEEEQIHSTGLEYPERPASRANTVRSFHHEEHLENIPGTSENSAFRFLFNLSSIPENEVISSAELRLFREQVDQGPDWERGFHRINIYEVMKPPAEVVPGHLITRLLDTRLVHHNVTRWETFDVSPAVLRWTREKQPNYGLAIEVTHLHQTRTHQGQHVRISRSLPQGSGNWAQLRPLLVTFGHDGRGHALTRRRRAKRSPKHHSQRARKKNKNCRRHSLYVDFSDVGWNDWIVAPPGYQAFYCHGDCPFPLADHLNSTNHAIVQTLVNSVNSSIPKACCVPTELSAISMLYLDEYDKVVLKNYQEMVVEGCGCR

Target: USP1-HA (UniProt O94782)
Assay: co-IP; Co-IP in 293T cells: USP1-HA with TBLR1-Flag (reciprocal, tag antibodies) or with RAC1, SMAD4, BMP4 or PPP2R1

binding: no binding
Substance: BMP4 (from UniProt P12644)
